Among the data in PMC12602876 are binding values, retold here.

Chains of the proteins cited; added tags and fusions are not shown. Residues count along the entry.
UniProt Q5ZZ40: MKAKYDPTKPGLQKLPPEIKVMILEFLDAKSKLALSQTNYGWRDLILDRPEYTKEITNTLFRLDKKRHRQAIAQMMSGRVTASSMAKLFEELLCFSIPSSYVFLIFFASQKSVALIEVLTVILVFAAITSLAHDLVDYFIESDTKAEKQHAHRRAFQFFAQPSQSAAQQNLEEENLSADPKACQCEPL
UniProt P11021, residues 19-654: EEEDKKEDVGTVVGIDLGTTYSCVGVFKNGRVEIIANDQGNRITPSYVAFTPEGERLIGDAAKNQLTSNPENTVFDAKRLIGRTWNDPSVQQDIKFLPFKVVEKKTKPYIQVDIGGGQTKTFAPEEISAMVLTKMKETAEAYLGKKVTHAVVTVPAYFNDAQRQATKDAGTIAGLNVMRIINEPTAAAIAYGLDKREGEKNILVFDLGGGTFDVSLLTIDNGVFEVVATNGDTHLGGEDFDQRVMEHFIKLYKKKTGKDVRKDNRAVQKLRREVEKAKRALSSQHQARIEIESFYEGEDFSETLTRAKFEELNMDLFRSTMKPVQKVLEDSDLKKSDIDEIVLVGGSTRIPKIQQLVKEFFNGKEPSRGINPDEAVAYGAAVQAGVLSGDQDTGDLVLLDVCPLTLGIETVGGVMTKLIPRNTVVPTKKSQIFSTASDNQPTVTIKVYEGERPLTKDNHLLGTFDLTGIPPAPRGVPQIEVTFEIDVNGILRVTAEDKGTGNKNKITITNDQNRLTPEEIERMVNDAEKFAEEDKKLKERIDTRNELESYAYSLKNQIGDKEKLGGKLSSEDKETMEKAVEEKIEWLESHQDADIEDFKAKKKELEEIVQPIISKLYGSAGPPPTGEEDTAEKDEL

No constants are given. Whether binding was seen depends on the method and setting. For some assays here: Binding seen in cells or lysates may run through a third protein. Some results given as binding are weak or reduced against the parent protein; the word gives no strength.

Assay [1] concerns the target N-terminally 3 × Flag-tagged LegU1 (expressed in L. pneumophila) (Legionella pneumophila) (UniProt Q5ZZ40). The assay can be described thus: pull-down; both purified.
Assay [2] concerns the target 3 × Flag-tagged LegU1 (expressed in HEK293T cells) (Legionella pneumophila) (UniProt Q5ZZ40). Description: co-IP.

Regarding “His-tagged BiP (purified from E. coli) (from UniProt P11021 19-654)”, the binding entry in assay [1] is listed as “binds”.
In the case of “HA-tagged BiP (expressed in HEK293T cells) (from UniProt P11021 19-654)”, in assay [2], the binding entry is “binds”.
